No constants are given. Whether binding was seen depends on the method and setting. In cells and extracts the contact can be indirect. Some results given as binding are weak or reduced against the parent protein; the word gives no strength.
Target: GPR56^C, the C-terminal fragment of GPR56 (wild type) (mouse) (UniProt Q8K209)
Assay: co-IP; membrane fraction (Mem-PER kit) of HEK 293T cells transfected with wild type or L640R mutant Gpr56 cDNA, stimulated with collagen III or vehicle (acetic acid) for 5 minutes; precipitated with rabbit anti-GPR56^C (199) and protein G-Sepharose; GPR56^N detected with mouse anti-GPR56^N (H11)

By UniProt entry, the sequences of proteins in these tests, tags left out. Residues count along the entry.
GPR56^N, the N-terminal fragment of GPR56 (Q8K209, residues 26-381): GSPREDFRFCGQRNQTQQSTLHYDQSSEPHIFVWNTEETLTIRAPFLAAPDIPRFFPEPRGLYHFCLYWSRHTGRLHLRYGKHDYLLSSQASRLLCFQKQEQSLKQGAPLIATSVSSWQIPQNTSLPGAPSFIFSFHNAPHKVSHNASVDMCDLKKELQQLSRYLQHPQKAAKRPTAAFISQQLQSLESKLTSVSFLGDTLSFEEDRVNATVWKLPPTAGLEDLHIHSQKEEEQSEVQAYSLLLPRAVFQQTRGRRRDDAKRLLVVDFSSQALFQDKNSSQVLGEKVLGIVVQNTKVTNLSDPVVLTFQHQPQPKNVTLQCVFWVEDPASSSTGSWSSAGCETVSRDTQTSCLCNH
GPR56^C, the C-terminal fragment of GPR56 (wild type) (Q8K209, residues 382-687): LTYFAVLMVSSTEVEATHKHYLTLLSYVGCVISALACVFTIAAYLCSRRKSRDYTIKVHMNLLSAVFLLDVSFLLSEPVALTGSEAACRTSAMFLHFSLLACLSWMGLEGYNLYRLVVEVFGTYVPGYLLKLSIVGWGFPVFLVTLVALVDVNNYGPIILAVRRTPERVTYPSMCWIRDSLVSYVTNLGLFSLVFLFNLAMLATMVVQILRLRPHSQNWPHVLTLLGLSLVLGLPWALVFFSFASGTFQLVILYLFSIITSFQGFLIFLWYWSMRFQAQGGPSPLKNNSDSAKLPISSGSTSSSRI

For “GPR56^N, the N-terminal fragment of GPR56 (from UniProt Q8K209 26-381) (domain or fragment)”, the binding was “binds”.

Source: paper PMC4065004
